The data set concerns the target PdhR (Escherichia coli K-12 W3110) (UniProt P0ACL9). The data set is described as follows: EMSA. To be noted: Gel shift buffer (composition not given), 37 °C, 30 min, 0.2 pmol probe, 0-10 pmol PdhR, GelRed stain, recombinant protein, protein details: His-tag (pET21a, Ni-NTA), probe letters rebuilt from the primers and the genome. A general note: A gel shift assay detects complexes by their altered migration in electrophoresis.

Chains of the proteins cited; added tags and fusions are not shown. Lines headed by an entry give the natural chain unless they say otherwise; changes in a name come on top.
UniProt P0ACL9: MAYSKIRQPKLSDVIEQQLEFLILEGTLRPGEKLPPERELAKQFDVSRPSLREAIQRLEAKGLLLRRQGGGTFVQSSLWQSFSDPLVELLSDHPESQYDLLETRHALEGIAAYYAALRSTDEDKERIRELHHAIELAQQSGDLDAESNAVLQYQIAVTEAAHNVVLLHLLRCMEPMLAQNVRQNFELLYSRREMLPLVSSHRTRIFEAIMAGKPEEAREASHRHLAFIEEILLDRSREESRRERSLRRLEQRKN

The mark [1] stands for this setting: smear, complex dissociates in gel.

For at least one entry, the source does not settle the construct or the ends of the probe.

For “AGAGGAATGTGTGCTTGTGTCTCAGCCCAACGTGAGTGCCTGTTTTTGAGTCGTTGAGTTCTACAGTCCAAAGTGCTGAAACCATTCAAGAGTCAATTGGCGCGCATTATACGCTGAAATTAATCCAAAAGGAAAACAAAAACAGCGTTTCAAAAAATATACAACTTGTTAGACAATAAATTGTTATCAAAGATTTAACGTTCCAGGGAAAAGGTTACGCAAAAACTTCACTGTTTGCGCAACGTCTGGTGCCGAAGTTGTCAGTGTGAGGATAAGTGAAAGTTCATCCGGTGTATAAATATATCATCGCTCAATTGCTACAGTTAAAATAATTTATCGCGTTATTTGTCTGATTTTGTTTGATTTTTGTTTAATTGGTTAGATTGATATATGCTGATAGTTGGCATGATAAATAGGTATAAAGAATGGGA (double strand) [fumD/pykF probe]”, the binding result (clear complex band) was “binds”.
“AGTTTCTCCATCACTGGTCGGTGATCAGAACCTTAAAACAGCGTAGACGCTTTTTGGGCTTTGTGAGAAATCTCGCAGAAAAAACCGCGAGTCTATAATCCGACGTAGAACAGAGGGAAAGGAGGAACCCTTGCCGAAATGACTATCCATAGTGAGTCGGGAACGATCCTGTCCCCGTAAAAACATAATATTTATCGTAGCTTTAACAACTCGAAATTAGTATAGGCCGCTAATTTCAATCATACAACAAAATTTTGTTAGCAGCCTAAGTATAAGTATATCGATATAGATCAGTGTGATTCGCTATGAGCGACTTCGGCATTGCCATGATTCTGGCAGCCAACTTCTTCACAACGTTGCATCATGTAACCCAGCGCGACCAGCACTACTGTTGATAACATCACGC (double strand) [ydhC ORF probe]”: the binding result is “binds”.
Consider “ATGTTGGCACCATTATGGACAACTCCGACTGCACCGCGTCTTACAGCCGCGTGTTTGCAAACCGCGCAGAAGCAGAGCAAACGCTGGCGGCGCTGACTGAAAAAGCCCGTAGCGTGGAATCTGAACCTTGCAAAATCACCCCGACTTTCACTGAAGAGTCTGACGGTGTGCGCCTGGATATCGATTTCACTTTTGCCTGCGAAGCTGAAATGCTGATTTTCCAGCTGGGTCTGCGTTAATTCCTCTCGGGTACGTACGCCCCTGTCAGTTGCTGGCAGGGGCGTTTTCTTTTCTCTTCTTCTTTTCTCTCTGTGTCATAGCTCCCACTTTCCCTTTTCTCCACTTGGCTAAATGTAAAAAAATGGTTAAGACTATGATCAGGTCAGACCACTTTATTTATTTTTTTACAGGGGAGTGTT (double strand) [fadI probe]”, for which, under setting [1], the binding result is given as “binds”.
As to “CGAACAATCCTTTTGTGATAAATGAACGGTTTGAGAAACACATTTCTGCGCATTTATCTTTGCATATTTAACCGGATGAAAAAAACGGTGAATCGTTCAAGCAAATATATTTTTTTACTTTTTAAGACTGATCCCAGCGTTGCGCAAATCTGCTCTCTTCGACAATTTCCACATAAACCATCGGTATAAACGAAACCATAAAAATGAAATGCTGTTTTCATAAAAAATAAAATTGAAGGTTCATTTTATAAACCAGACATAACGTTCTACGCTTCTGTGCGTTTTTAATTTATGCTTTCATAGAATTATGTCTGCATCACGGGAAGAACAAAATGGATAATGCTGTTGATCGCCACGTTTTTTATATTTCTGATGGTACGGCAATAACTGCGGAGGTATTAGGACACGCAGTAATGTCACAATTT (double strand) [ppsA/ppsR probe]”, the binding result under setting [1] is “binds”.
As to “GAGTTCCTGTCTTAAGCCACTTGCCGAAGTCAATTGGTCTTACCAATTTCATGTCTGTGACGCTAAAGTAACAAAGTATTCACCTTATGTCCATACAGGTTTTGATTGAAATCATGAAACTGTGCACATTTTAACAACTTGACATATATAACGTTTCAAAGTTGTAACTATGCACAAATGTAGACTTTACGTAGGAAAGGAGTTTTTTAACGATTATTAAACTATAAAAATCCGAATTGAACCGATTCACTTACCAATTTTGTGATTTTTAATTCAATTAAAACGAATTTAAATTCATTCTACATATTGAGAGGGGTTGAGGCTGAGCTTTACAAACGGTTTCTTTTTAAGCAACTCATCTTCAACCATGCATAAAGCGGGTGCATTCGCTGCCGCATACCATTATTCTTGATCTGACGGAAGTCTTTTTGTAACAATTCAAACTTCTTTGATGTAAACAAATTAATACAACAAACGG (double strand) [aroP/pdhR probe]”, the binding result is “binds”.
On to “TGATAAACAGCCCTGCGTTATATGAGTTATCGGCATGATTATCCGTTTCTGCAGGGTTTTTAATCGGACGATTAGTGGGTGAAATGAGGGGTTATTTGGGGGTTACAGGTAAATTCCAGGCAGAAAAAAACCCCGCCGGTGGCGGGGAAGCACGTTGCTGACAAATTGCGCTTTATGTTGCCGGATGCGGCGTAAACGCCTTATCCGGCCTACAAAAATGTGCAAATTCAATAAATTGCAATTCAACTTGTAGGCCTGATAAGCGCAGCGCATCAGGCAATTTGGCGTTGCCGTCAGTCTCAGTTAATCAGGTTACAACGATTAACCCTGCAGCAGAGACAGAACCTGCTGCGGTACCTGGTTAGCTTTTGCCAACACGGAGTTACCGGCCTGCTGGATGATCTGCGCTTTCGACATATTGGACACTTCGGTCGCATAGTCGGCGTCCTGAATACGGGACTGCGCTTCAGACAGGTTGGTAGTGGTGTTGTTCAGGTTGGTAACCGCGGAATCCAGACGGTTTTGCACCGCACCGAGGGAAGAACGGAATTTGTCTACAGATGCGATAGCATCGTCCAGCGCTTTCAGCGGATCCGTGGTTTTACCATTTGCAACAGCAGTCAGAGCCTCACCACCAGCAGTCAAACCTGTTTGCAGATTACCGCCATTTAAATCGGCAGAATCGTATGTTTTACCATCAATATCGACCACTTCTGTTTTGCCATCATCTCCGCCCAGTTTGACCGCGGTTGGAGAACTGGCGGCACCGGAAGAGTCAGTATAGGTAATAG (double strand) [fliA probe]”, for which the binding result (clear complex band) was “binds”.

Values taken from PMC7660256.
